{"sequences": {"note": "The chains behind the UniProt entries cited, without tags or fusion partners. Where a name states a change or a piece, a line headed by the entry shows the natural chain unless it says otherwise.", "UniProt Q9UNA4": "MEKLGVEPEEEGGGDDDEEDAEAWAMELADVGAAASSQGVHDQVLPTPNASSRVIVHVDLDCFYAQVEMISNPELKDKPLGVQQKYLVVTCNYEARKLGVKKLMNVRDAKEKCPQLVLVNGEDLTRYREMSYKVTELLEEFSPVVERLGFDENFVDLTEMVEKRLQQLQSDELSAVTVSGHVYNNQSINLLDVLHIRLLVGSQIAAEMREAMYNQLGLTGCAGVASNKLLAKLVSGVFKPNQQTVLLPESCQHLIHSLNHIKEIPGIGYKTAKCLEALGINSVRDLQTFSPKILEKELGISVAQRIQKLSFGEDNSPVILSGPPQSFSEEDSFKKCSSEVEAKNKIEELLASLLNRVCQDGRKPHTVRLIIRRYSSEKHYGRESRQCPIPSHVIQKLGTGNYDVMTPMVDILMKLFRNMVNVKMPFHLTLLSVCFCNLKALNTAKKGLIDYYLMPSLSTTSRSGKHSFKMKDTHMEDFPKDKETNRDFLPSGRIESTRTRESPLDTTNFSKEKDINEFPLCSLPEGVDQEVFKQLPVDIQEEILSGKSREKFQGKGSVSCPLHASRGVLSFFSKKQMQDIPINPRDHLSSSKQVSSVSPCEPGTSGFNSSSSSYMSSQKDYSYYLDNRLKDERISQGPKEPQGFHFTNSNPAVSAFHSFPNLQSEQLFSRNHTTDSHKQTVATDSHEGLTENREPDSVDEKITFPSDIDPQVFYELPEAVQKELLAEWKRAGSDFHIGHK"}, "source": "PubChem BioAssay AID588590", "about": "(National Center for Advancing Translational Sciences (NCATS), 2011)", "note": "Among all 390,000 compounds or so, about 4,000 (1%) were called active. The shares of active, inactive and inconclusive entries below differ from those in the screen. Calls follow the shape of the dose curve; as a rule, active = well fitted inhibition curve with a large enough effect; inconclusive = small, poorly fitted or top-dose-only effect, or another doubt; inactive = no such curve, though single readings can be large or run the other way. A potency beside an inconclusive call is a rough fit, not a confirmed value. Potency is read from the fitted curve at half-maximal effect."}
{"molecular_target": "DNA polymerase iota (Homo sapiens) (UniProt Q9UNA4)", "assay": "qHTS for Inhibitors of Polymerase Iota", "conditions": "Pol iota fluorescent replication assay, 10 min; series mostly up to 115 µM", "how_it_was_run": "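Fluorescent replication assay read twice, at 0 min and 10 min after adding 50 nM (final) substrate. Enzyme (10 nM) and compounds were first incubated 15 min at room temperature; enzyme-free buffer wells were negative controls.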"}
{"smiles": "Cc1cccc([C@@H]2[C@@H]3C(=O)N(Cc4ccccc4)C(=O)[C@@H]3[C@]3(C)C(=O)N(c4ccc(C(F)(F)F)cc4)C(=O)N23)c1", "Potency": "inconclusive: 3.98 µM [inhibitor, full curve, poor fit]"}
{"smiles": "CCCCN1C(N)=NC[C@@H]1Cc1ccccc1", "Potency": "inconclusive: 50.1 µM [inhibitor, single point]"}
{"smiles": "COCCCNC(=O)C1CCN(c2nc(C)cc(C)n2)CC1", "Potency": "inconclusive: 112 µM [inhibitor, partial curve, poor fit]"}
{"smiles": "COc1ccc(N2CCN(C(=O)c3ccc(C)c(NC(=O)c4nsc5ccccc45)c3)CC2)cc1", "Potency": "inconclusive: 89.1 µM [inhibitor, partial curve, poor fit]"}
{"smiles": "COc1ccc(-n2nnnc2SCC(=O)N2C(C)CCCC2C)c(OC)c1", "note": "(stereo not given)", "Potency": "inconclusive: 89.1 µM [inhibitor, partial curve, poor fit]"}
{"smiles": "COc1ccccc1/C=C/C=N/n1c(-c2ccccn2)n[nH]c1=S", "Potency": "inconclusive: 56.2 µM [inhibitor, partial curve, poor fit]"}
{"smiles": "COc1ccc(C(=O)Nc2ccc(-c3nc4ncccc4o3)cc2)cc1", "Potency": "inactive"}
{"smiles": "C[C@@](Cc1ccc(O)c(O)c1)(NN)C(=O)O", "Potency": "inconclusive: 31.6 µM [inhibitor, partial curve, poor fit]"}
{"smiles": "O=C(O)CSc1nnc(Cc2ccccc2)n1-c1ccccc1", "Potency": "inconclusive: 1.41 µM [inhibitor, full curve, poor fit]"}
{"smiles": "Cc1ccc(C)c(NC(=O)c2ccccc2O)c1", "Potency": "inactive"}
{"smiles": "CC1CC(OCC(O)C[N+]2(C)CCOCC2)CC(C)(C)C1", "note": "(stereo not given)", "Potency": "inconclusive: 89.1 µM [inhibitor, single point]"}
{"smiles": "C[C@H](O)Cc1cn(-c2cc3cc(C#Cc4ccsc4)ccc3oc2=O)nn1", "Potency": "inconclusive: 35.5 µM [inhibitor, full curve, poor fit]"}
{"smiles": "CCN(CC)c1ccc(NC(=O)CSc2nnc(C)c(=O)[nH]2)cc1", "Potency": "inconclusive: 63.1 µM [inhibitor, partial curve, poor fit]"}
{"smiles": "CCCCc1ccc(-n2nc3cc(C)c(NC(=O)Cc4ccccc4)cc3n2)cc1", "Potency": "inconclusive: 31.6 µM [inhibitor, partial curve, poor fit]"}
{"smiles": "COc1ccccc1NC(=O)C(C)Sc1nnc2ccccn12", "note": "(stereo not given)", "Potency": "inconclusive: 5.01 µM [inhibitor, full curve, poor fit]"}
{"smiles": "COC(=O)c1ccccc1NC(=O)Cn1cc(S(=O)(=O)Cc2ccccc2F)c2ccccc21", "Potency": "inconclusive: 100 µM [inhibitor, partial curve, poor fit]"}
{"smiles": "O=C(NCCNCc1ccccc1)c1ccco1", "Potency": "active: 20 µM"}
{"smiles": "COc1ccc(C(CCN2CCOCC2)c2c(O)cc(OC)cc2OC)cc1", "note": "(stereo not given)", "Potency": "inconclusive: 100 µM [inhibitor, single point]"}
{"smiles": "Cc1cccc2nc(-c3ccccc3)nc(N3CCC(O)(c4ccc(Cl)cc4)CC3)c12", "Potency": "inactive"}
{"smiles": "CC1=CC(C)(C)Nc2ccc(OC(=O)CN3C(=O)c4cccc5cccc(c45)C3=O)cc21", "Potency": "inconclusive: 31.6 µM [inhibitor, partial curve]"}
{"smiles": "Cc1ccc2nc3c(c(C(=O)O)c2c1)CCC3", "Potency": "inconclusive: 79.4 µM [inhibitor, partial curve, poor fit]"}
{"smiles": "Cn1nc(-c2ccc(OCC(=O)Nc3cccnc3)cc2)c2ccccc2c1=O", "Potency": "inactive"}
{"smiles": "O=C(OCC(=O)N1CCN(c2ccccc2)CC1)c1ccc(O)cc1O", "Potency": "inconclusive: 89.1 µM [inhibitor, partial curve, poor fit]"}
{"smiles": "CCOC(=O)c1cnc(SCC(=O)NCc2ccco2)nc1N", "Potency": "inconclusive: 39.8 µM [inhibitor, single point]"}
{"smiles": "Nc1ccc2nc[nH]c2c1", "Potency": "inconclusive: 35.5 µM [inhibitor, partial curve, poor fit]"}
{"smiles": "O=C(CCN1C(=O)/C(=C/c2ccccc2Cl)SC1=S)Nc1ccccc1C(=O)O", "Potency": "inconclusive: 11.2 µM [inhibitor, full curve, poor fit]"}
{"smiles": "O=C(NC1CCCCC1)C(c1cccnc1)N(C(=O)CCl)c1cccc(Cl)c1", "note": "(stereo not given)", "Potency": "inconclusive: 89.1 µM [inhibitor, partial curve, poor fit]"}
{"smiles": "O=C(Oc1cccc2cccnc12)c1cccc(N2C(=O)C3C4CCC(C4)C3C2=O)c1", "note": "(stereo not given)", "Potency": "inconclusive: 22.4 µM [inhibitor, partial curve]"}
{"smiles": "Cc1c(Cc2ccccc2)sc(NC(=O)Cc2ccccc2)c1C(N)=O", "Potency": "inconclusive: 15.8 µM [inhibitor, partial curve, poor fit]"}
{"smiles": "CCCc1ccc(Oc2cc(C)nc(N3CCOCC3)n2)cc1", "Potency": "inconclusive: 89.1 µM [inhibitor, single point]"}
{"smiles": "O=C(c1cccc([N+](=O)[O-])c1)N1c2ncnn2C2(CCCCC2)[C@@H]2CCCC[C@@H]21", "Potency": "inconclusive: 89.1 µM [inhibitor, single point]"}
{"smiles": "CCOC(=S)SCC(=O)N1CCc2ccccc2C1C1C(=O)CCCC1=O", "note": "(stereo not given)", "Potency": "inconclusive: 20 µM [inhibitor, partial curve, poor fit]"}
{"smiles": "Oc1ccc(Cl)cc1C1C=C(c2ccc3c(c2)OCO3)NC(c2ccc(Cl)cc2)N1", "note": "(stereo not given)", "Potency": "inconclusive: 15.8 µM [inhibitor, full curve]"}
{"smiles": "Cc1cccc(CN2CCN(Cc3cccc4nonc34)CC2CCO)n1", "note": "(stereo not given)", "Potency": "inconclusive: 100 µM [inhibitor, partial curve, poor fit]"}
{"smiles": "O=C(Nc1nnc(SCc2ccc(F)cc2)s1)C1Cc2ccccc2CN1C(=O)c1ccco1", "note": "(stereo not given)", "Potency": "inconclusive: 14.1 µM [inhibitor, partial curve, poor fit]"}
{"smiles": "COc1cccc(OCCCCn2c(-c3ccc(Cl)cc3)nc3ccccc3c2=O)c1", "Potency": "inconclusive: 100 µM [inhibitor, partial curve, poor fit]"}
{"smiles": "C[C@@H]1CN([C@@H](C)CO)C(=O)c2cc(NC(=O)C3CC3)ccc2O[C@@H]1CN(C)Cc1ccc(Cl)c(Cl)c1", "Potency": "inconclusive: 79.4 µM [inhibitor, partial curve, poor fit]"}
{"smiles": "Fc1cccc(Cl)c1COc1ccc(-c2nnco2)cc1", "Potency": "inconclusive: 89.1 µM [inhibitor, partial curve]"}
{"smiles": "COc1ccc(/C=C/C(=O)O)cc1S(=O)(=O)N1CCCCC1", "Potency": "inactive"}
{"smiles": "COc1ccc(C)cc1C1=CC(=O)C[C@H](c2ccc(F)cc2)C1", "Potency": "inconclusive: 3.16 µM [inhibitor, partial curve, poor fit]"}
{"smiles": "FC(F)(F)C1CCCN(c2nsc3ccccc23)C1", "note": "(stereo not given)", "Potency": "inconclusive: 25.1 µM [inhibitor, partial curve, poor fit]"}
{"smiles": "O=C1SC(SCc2ccccc2)=N/C1=C\\c1ccco1", "Potency": "active: 11.2 µM"}
{"smiles": "O=C(O)c1cccc(-c2ccc(/C=c3/sc4nc5ccccc5n4c3=O)o2)c1", "Potency": "inconclusive: 8.91 µM [inhibitor, full curve, poor fit]"}
{"smiles": "COc1ccc(NC(=O)Nc2cccs2)cc1Cl", "Potency": "inactive"}
{"smiles": "O=S(=O)(Nc1nc2ccccc2nc1Nc1cccc(S(=O)(=O)N2CCCCC2)c1)c1ccccc1", "Potency": "inconclusive: 79.4 µM [inhibitor, partial curve]"}
{"smiles": "C=CCNC(=O)c1c(Cl)cnn1-c1ccc(C)cc1", "Potency": "inconclusive: 39.8 µM [inhibitor, single point]"}
{"smiles": "O=C(/C=C/c1ccc(Cl)c([N+](=O)[O-])c1)Nc1ccc(N2CCCC2)cc1", "Potency": "inconclusive: 20 µM [inhibitor, single point]"}
{"smiles": "COc1ccc(/C=N/Nc2nc(C)cc(-c3ccccc3)n2)c(OC)c1", "Potency": "inactive"}
{"smiles": "COc1ccc(-n2nc3c(N4CCC(C(=O)NCc5ccccc5)CC4)nnc(C)c3c2C)cc1", "Potency": "inconclusive: 17.8 µM [inhibitor, full curve, poor fit]"}
{"smiles": "S=c1[nH]nc(-c2cc(-c3ccccc3)n[nH]2)n1/N=C/c1ccc(Cl)c(Cl)c1", "Potency": "inconclusive: 39.8 µM [inhibitor, single point]"}
{"smiles": "O=C1OC(c2ccc3ccccc3c2O)(c2ccc3ccccc3c2O)c2ccccc21", "Potency": "inconclusive: 12.6 µM [inhibitor, full curve, poor fit]"}
{"smiles": "COc1ccc(NC(=O)CCCN2C(=O)/C(=C\\c3ccco3)SC2=S)cc1", "Potency": "inconclusive: 28.2 µM [inhibitor, partial curve, poor fit]"}
{"smiles": "CCc1ccccc1NC(=O)Cn1nnc(C(=O)NCc2ccco2)c1N", "Potency": "inconclusive: 100 µM [inhibitor, single point]"}
{"smiles": "Cc1sc2nc(COC(=O)c3cccc(S(=O)(=O)N(C)c4ccccc4)c3)[nH]c(=O)c2c1C", "Potency": "inconclusive: 14.1 µM [inhibitor, full curve, poor fit]"}
{"smiles": "COc1ccc(C(=O)c2c(C(F)(F)F)oc3c2C(=O)c2ccccc2C3=O)cc1", "Potency": "inconclusive: 112 µM [inhibitor, full curve, poor fit]"}
{"smiles": "O=C(CCS(=O)(=O)c1ccccc1)N(Cc1cccnc1)c1nc2c(F)cccc2s1", "Potency": "inconclusive: 28.2 µM [inhibitor, partial curve, poor fit]"}
{"smiles": "CC1=C(C(=O)Nc2ccccc2)C2(CCCCC2)C(C#N)=C(S)N1", "Potency": "inactive"}
{"smiles": "O=C(O)c1cccc(NC(=S)NC(NC(=O)c2ccco2)C(Cl)(Cl)Cl)c1", "note": "(stereo not given)", "Potency": "inconclusive: 56.2 µM [inhibitor, partial curve, poor fit]"}
{"smiles": "O=C(NCCO)C(=O)NCC(c1ccc2c(c1)OCO2)N1CCOCC1", "note": "(stereo not given)", "Potency": "inconclusive: 89.1 µM [inhibitor, single point]"}
{"smiles": "NC(=O)c1cc(N)ccc1N1CCCC1", "Potency": "inconclusive: 11.2 µM [inhibitor, partial curve, poor fit]"}
